# Reference: the supplement of paper PMC8256030
# The other results are listed elsewhere or left out. Single values are uncertain here, since repeats match poorly.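 HEK293T cells were given each compound shortly before transfection with a reporter in which red mCherry is followed by the SARS-CoV-2 frameshift element and then GFP in the −1 frame, so GFP appears only after frameshifting.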
# Assays:
# [1] = test system: SARS-CoV-2 -1 PRF reporter mCherry-FSE-GFP(-1); assay: mCherry (red) intensity as percent of control; higher = higher upstream reporter expression; conditions: 10 µM; 24 h; HEK293T
# [2] = test system: SARS-CoV-2 -1 PRF reporter mCherry-FSE-GFP(-1); assay: percent effect, decrease of GFP/mCherry ratio (-1 PRF reporter) relative to controls; higher = stronger frameshift inhibition; conditions: 10 µM; 24 h; HEK293T
SMILES,mCherry [1],percent effect [2]
NC(=O)COC(=O)c1ccccc1Nc1cccc(C(F)(F)F)c1 [colfenamate],136%,11%
CN/C(=N\c1ccc(C2=NNC(=O)CC2C)cc1)NC#N (centres undefined) [Siguazodan],82.3%,-7.11%
N[C@@H]1CCCCN(c2c(F)cc3c(=O)c(C(=O)O)cn(C4CC4)c3c2Cl)C1 [Besifloxacin],83%,-1.83%
O=C(O)c1cc(O)c2c3nc4ccccc4oc-3cc(=O)c2n1 [pirenoxine],95.3%,-5.28%
C=C(C)[C@@H]1CC[C@]2(C(=O)O)CC[C@]3(C)[C@H](CC[C@@H]4[C@@]5(C)CC[C@H](OC(=O)CC(C)(C)C(=O)O)C(C)(C)[C@@H]5CC[C@]43C)[C@@H]12 [bevirimat],126%,2.28%
CC1Oc2ccc(Cl)cc2N(CC(O)CO)C1=O (centres undefined) [diproxadol],92.2%,0.453%
[N-]=[N+]=NCC(=O)N[C@H](CO)[C@H](O)c1ccc([N+](=O)[O-])cc1 [azidamfenicol],104%,-4.21%
N/N=c1/ccc(C(N)=O)n[nH]1 [hydracarbazine],111%,-19.3%
CCOc1ccc(NC(=S)Nc2ccc(OCC)cc2)cc1 [etocarlide],22.3%,-14.5%
S=P(N1CC1)(N1CC1)N1CC1 [thiotepa],97.2%,-2.12%
CN(C)CCN1C(=O)c2ccccc2N(C)c2ccccc21 [dibenzepin],71.6%,-0.705%
OC(CCCN1CCc2c(c3cc(F)ccc3n2-c2ccc(F)cc2)C1)c1ccc(F)cc1 (centres undefined) [flutroline],57.1%,-4.8%
